Results published in patent publication US7700553B2, “Selective inhibition of NF-κB activation by peptides designed to disrupt nemo oligomerization” (priority 2003, dated 2010).

Experiment: Kd and cooperativity indice of NLM peptides by Hill coefficient calculation
Type: binding
Description: The present inventors compared NLM-DR to the corresponding NLM peptide by measuring the respective cooperativity indices, which evidence an advantage of NLM-DR mutated peptide over the wild-type.
The calculation of the “cooperativity indice” by means of Hill coefficient is based on the following formula Boundmax×L^n/(KD^n+L^n)
Boundmax is the maximum concentration of the bound ligand,
L is the concentration of the free ligand,
n is the cooperativity indice and
KD, is the affinity constant of the ligand by the protein.
If these values were to be compared to those obtained from the curves without accounting for cooperativity, the affinity of NLM-DR peptide would be 75 times higher than the affinity of wild-type NLM peptide.

LKAQADIYKARFQAERHAREK [NLM-DR] gave a cooperativity indice of 1.4.

In the case of “NLM: corresponding wild type NLM peptide covering the same 21 amino acid range as NLM-DR (LKAQADIYKADFQAERHAREK)”, the cooperativity indice is reported as 2.1.
